The target in assay [1] is T1, recombinant glutathione S-transferase-AKIN11 fusion protein (Arabidopsis thaliana) (UniProt P92958).
T1 sequence: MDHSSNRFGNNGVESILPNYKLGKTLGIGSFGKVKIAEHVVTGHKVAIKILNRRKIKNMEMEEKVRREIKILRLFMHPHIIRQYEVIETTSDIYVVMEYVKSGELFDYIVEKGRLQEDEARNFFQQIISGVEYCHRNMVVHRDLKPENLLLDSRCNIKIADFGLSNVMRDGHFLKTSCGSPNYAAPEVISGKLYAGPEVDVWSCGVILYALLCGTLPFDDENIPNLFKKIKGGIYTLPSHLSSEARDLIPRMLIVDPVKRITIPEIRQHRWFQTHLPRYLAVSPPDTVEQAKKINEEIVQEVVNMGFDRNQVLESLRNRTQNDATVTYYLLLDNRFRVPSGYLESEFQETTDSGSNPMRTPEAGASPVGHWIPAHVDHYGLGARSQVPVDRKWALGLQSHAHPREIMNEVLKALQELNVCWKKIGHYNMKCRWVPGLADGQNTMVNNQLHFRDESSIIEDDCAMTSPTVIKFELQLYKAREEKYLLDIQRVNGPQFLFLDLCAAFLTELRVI
The assay can be described thus: pull-down; in vitro pull-down: recombinant GST fusions (or GST alone) as bait, 35S-labelled in vitro translated IDD8 as prey; bound proteins eluted by boiling in SDS-PAGE loading buffer, SDS-PAGE and autoradiography; only the target purified.

The target in assay [2] is T2, C-terminal half of YFP fused to AKIN11 (Arabidopsis thaliana) (UniProt P92958).
T2 sequence: T1 sequence
Kind of assay: split reporter; BiFC: nYFP and cYFP fusions cotransfected into Arabidopsis mesophyll protoplasts (PEG-calcium), 23°C for 16 h, confocal microscopy; CFP-ICE1 as nuclear marker.

Results are given in words; binding and its absence hold for the method and conditions named. In cells and extracts the contact can be indirect. Some binding calls cover weakened binding; strength is not graded here. Tags and fused reporters may be left off the sequences shown.

B1: 35S-labelled IDD8 polypeptides produced by in vitro translation (protein, UniProt Q9FFH3 1-466)
chain: MTSEVLQTISSGSGFAQPQSSSTLDHDESLINPPLVKKKRNLPGNPDPEAEVIALSPTTLMATNRFLCEVCGKGFQRDQNLQLHRRGHNLPWKLKQRTSKEVRKRVYVCPEKTCVHHHSSRALGDLTGIKKHFCRKHGEKKWTCEKCAKRYAVQSDWKAHSKTCGTREYRCDCGTIFSRRDSFITHRAFCDALAEETAKINAVSHLNGLAAAGAPGSVNLNYQYLMGTFIPPLQPFVPQPQTNPNHHHQHFQPPTSSSLSLWMGQDIAPPQPQPDYDWVFGNAKAASACIDNNNTHDEQITQNANASLTTTTTLSAPSLFSSDQPQNANANSNVNMSATALLQKAAEIGATSTTTAATNDPSTFLQSFPLKSTDQTTSYDSGEKFFALFGSNNNIGLMSRSHDHQEIENARNDVTVASALDELQNYPWKRRRVDGGGEVGGGGQTRDFLGVGVQTLCHPSSINGWI
modifications: [35S] methionine-labeled
Take B1: the binding entry in assay [1] is “binds”.

B2: N-terminal half of yellow fluorescent protein fused to IDD8 (protein, UniProt Q9FFH3 1-466)
chain: B1 chain
Consider B2, for which the binding entry in assay [2] is given as “binds”.

Values taken from paper PMC4416337.
